Measured values from article PMC12794193.
No constants are given. Whether binding was seen depends on the method and setting. In cells and extracts the contact can be indirect. For part of these data: Binding can be weak; no strength is given. Sequences can lack the tags named with a protein.

Assays:
Experiment in all cases: co-IP; HEK293T cells co-transfected with tagged constructs; lysis in 25 mM tris-HCl pH 7.4, 150 mM NaCl, 1 mM EDTA, 1% NP-40, 5% glycerol; antibody (anti-Myc or anti-Flag) overnight at 4 °C, protein A/G magnetic beads 4 h; immunoblot; some panels with CQ (10 μM, 6 h), Myc-SENP6 overexpression or Senp6 knock-down
Flag-NLRP3-ΔLRR = target: Flag-NLRP3-ΔLRR
Flag-NLRP3-ΔNACHT = target: Flag-NLRP3-ΔNACHT
Flag-NLRP3-ΔPYD = target: Flag-NLRP3-ΔPYD

binding (Flag-NLRP3-ΔLRR): binds
binding (Flag-NLRP3-ΔNACHT): no binding
binding (Flag-NLRP3-ΔPYD): binds
B1: Myc-SENP6 (enzyme, UniProt Q9GZR1 1-1112)
chain: MAAGKSGGSAGEITFLEALARSESKRDGGFKNNWSFDHEEESEGDTDKDGTNLLSVDEDEDSETSKGKKLNRRSEIVANSSGEFILKTYVRRNKSESFKTLKGNPIGLNMLSNNKKLSENTQNTSLCSGTVVHGRRFHHAHAQIPVVKTAAQSSLDRKERKEYPPHVQKVEINPVRLSRLQGVERIMKKTEESESQVEPEIKRKVQQKRHCSTYQPTPPLSPASKKCLTHLEDLQRNCRQAITLNESTGPLLRTSIHQNSGGQKSQNTGLTTKKFYGNNVEKVPIDIIVNCDDSKHTYLQTNGKVILPGAKIPKITNLKERKTSLSDLNDPIILSSDDDDDNDRTNRRESISPQPADSACSSPAPSTGKVEAALNENTCRAERELRSIPEDSELNTVTLPRKARMKDQFGNSIINTPLKRRKVFSQEPPDALALSCQSSFDSVILNCRSIRVGTLFRLLIEPVIFCLDFIKIQLDEPDHDPVEIILNTSDLTKCEWCNVRKLPVVFLQAIPAVYQKLSIQLQMNKEDKVWNDCKGVNKLTNLEEQYIILIFQNGLDPPANMVFESIINEIGIKNNISNFFAKIPFEEANGRLVACTRTYEESIKGSCGQKENKIKTVSFESKIQLRSKQEFQFFDEEEETGENHTIFIGPVEKLIVYPPPPAKGGISVTNEDLHCLNEGEFLNDVIIDFYLKYLVLEKLKKEDADRIHIFSSFFYKRLNQRERRNHETTNLSIQQKRHGRVKTWTRHVDIFEKDFIFVPLNEAAHWFLAVVCFPGLEKPKYEPNPHYHENAVIQKCSTVEDSCISSSASEMESCSQNSSAKPVIKKMLNKKHCIAVIDSNPGQEESDPRYKRNICSVKYSVKKINHTASENEEFNKGESTSQKVADRTKSENGLQNESLSSTHHTDGLSKIRLNYSDESPEAGKMLEDELVDFSEDQDNQDDSSDDGFLADDNCSSEIGQWHLKPTICKQPCILLMDSLRGPSRSNVVKILREYLEVEWEVKKGSKRSFSKDVMKGSNPKVPQQNNFSDCGVYVLQYVESFFENPILSFELPMNLANWFPPPRMRTKREEIRNIILKLQEDQSKEKRKHKDTYSTEAPLGEGTEQYVNSISD
